# Reference: doi:10.1101/2023.12.20.572709
# Protein sequences, listed by entry. Tags and fused reporters are not part of them.
# UniProt P43694: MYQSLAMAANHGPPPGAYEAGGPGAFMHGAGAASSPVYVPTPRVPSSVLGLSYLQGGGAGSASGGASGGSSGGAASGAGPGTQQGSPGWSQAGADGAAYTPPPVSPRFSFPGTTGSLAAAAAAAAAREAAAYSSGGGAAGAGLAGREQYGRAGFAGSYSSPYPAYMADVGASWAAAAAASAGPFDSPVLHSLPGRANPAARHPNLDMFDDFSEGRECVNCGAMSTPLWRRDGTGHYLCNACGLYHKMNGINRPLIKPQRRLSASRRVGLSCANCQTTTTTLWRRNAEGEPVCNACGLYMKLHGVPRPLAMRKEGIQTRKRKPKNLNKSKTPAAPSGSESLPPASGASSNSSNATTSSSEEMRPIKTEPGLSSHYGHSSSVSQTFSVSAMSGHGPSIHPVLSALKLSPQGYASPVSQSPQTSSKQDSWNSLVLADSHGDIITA
# UniProt P28482: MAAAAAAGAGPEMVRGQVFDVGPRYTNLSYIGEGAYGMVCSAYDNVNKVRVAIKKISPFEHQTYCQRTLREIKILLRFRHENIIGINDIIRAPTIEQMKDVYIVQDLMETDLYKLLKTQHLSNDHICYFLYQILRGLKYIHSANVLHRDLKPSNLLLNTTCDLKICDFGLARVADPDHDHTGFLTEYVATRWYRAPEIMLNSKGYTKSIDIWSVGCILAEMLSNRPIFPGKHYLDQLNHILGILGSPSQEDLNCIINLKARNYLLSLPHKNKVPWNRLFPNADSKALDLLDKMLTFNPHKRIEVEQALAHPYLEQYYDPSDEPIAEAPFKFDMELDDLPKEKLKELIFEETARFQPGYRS
# UniProt P27361: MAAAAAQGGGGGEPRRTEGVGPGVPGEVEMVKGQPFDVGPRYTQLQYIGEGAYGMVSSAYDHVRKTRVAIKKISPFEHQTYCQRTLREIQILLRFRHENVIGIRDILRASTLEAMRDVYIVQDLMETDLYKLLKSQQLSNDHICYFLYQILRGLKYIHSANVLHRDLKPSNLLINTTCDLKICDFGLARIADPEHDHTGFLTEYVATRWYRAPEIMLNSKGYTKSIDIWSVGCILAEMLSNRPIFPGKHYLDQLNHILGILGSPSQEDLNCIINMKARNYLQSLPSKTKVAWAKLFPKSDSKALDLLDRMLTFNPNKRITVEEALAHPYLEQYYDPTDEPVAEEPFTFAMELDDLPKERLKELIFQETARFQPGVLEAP
# These are yes or no findings as the source states them, for the method shown. Binding seen in cells or lysates may run through a third protein. A yes stands for co-enrichment or nearness to the bait. Other partners may have been found.
# Target: T1, Fibroblast growth factor 12 (FGF12) (human (endogenous in myocardial tissue)) (UniProt P61328)
# T1 sequence: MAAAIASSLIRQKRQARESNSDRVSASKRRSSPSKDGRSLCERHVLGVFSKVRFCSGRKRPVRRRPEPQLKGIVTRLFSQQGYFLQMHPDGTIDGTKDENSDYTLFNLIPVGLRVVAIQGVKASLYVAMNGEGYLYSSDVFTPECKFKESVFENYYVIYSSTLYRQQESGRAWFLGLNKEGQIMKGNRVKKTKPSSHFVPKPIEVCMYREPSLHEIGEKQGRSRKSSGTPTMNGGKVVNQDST
# Assay: affinity purification with mass spectrometry
row,binding,Substance
1,binds,GATA binding protein 4 (GATA4) (from UniProt P43694 1-442)
2,binds,mitogen-activated protein kinase 1 (MAPK1) (from UniProt P28482 1-360)
3,binds,mitogen-activated protein kinase 3 (MAPK3) (from UniProt P27361 1-379)
